Measurements published in PubChem BioAssay AID2707 (National Center for Advancing Translational Sciences (NCATS), 2010).
The shares of active, inactive and inconclusive entries below differ from those in the screen. Potencies of inconclusive entries are doubtful fits and often do not repeat. Activity calls are given as the source filed them.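 How the source made its calls: active means potency below 100 µM; inconclusive means dose-dependent response but potency above 100 µM; inactive means the rest.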

The chains behind the UniProt entries cited, without tags or fusion partners.
UniProt Q9F4F7, whole entry, looked up: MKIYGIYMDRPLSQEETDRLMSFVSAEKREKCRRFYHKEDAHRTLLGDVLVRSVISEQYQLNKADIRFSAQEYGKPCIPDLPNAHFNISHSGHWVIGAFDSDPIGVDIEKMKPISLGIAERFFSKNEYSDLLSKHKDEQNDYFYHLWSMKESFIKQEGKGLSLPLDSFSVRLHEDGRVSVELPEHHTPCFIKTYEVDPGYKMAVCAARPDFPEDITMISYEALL

The compounds below were run against 4'-phosphopantetheinyl transferase ffp (Bacillus subtilis) (UniProt Q9F4F7) (assay: Gel-Based Assay for Inhibitors of Bacillus subtilis Sfp phosphopantetheinyl transferase (PPTase)). Conditions: purified Sfp, gel-based phosphopantetheinylation read-out.
Text: The covalent attachment of a phosphopantetheinyl (4'-PP) arm to a variety of synthases and other proteins is a key posttranslational protein modification. The 4'-PP is installed on the proteins post-translationally from coenzyme A (CoA) on a conserved serine residue by action of phosphopantetheinyl transferase (PPTase) enzymes. Phosphopantetheinylation is essential for synthase activity, and removal of the PPTase gene precludes natural product synthesis in microorganisms, or in the case of fatty acid biosynthesis, renders the organism unviable. PPTase enzymes belong to a distinct structural superfamily. Within bacteria, these enzymes are grouped into two classes based upon primary structure, the AcpS-Type and Sfp-Type PPTases.
Sfp-type PPTases, corresponding to an activator of surfactin production in Bacillus subtilis, are responsible for modifying type I polyketide and nonribosomal peptide synthases of prokaryotes. Sfp-type PPTases are responsible for the activation of a variety of pathogen-associated virulence factors. Among these compounds are toxins such as mycolactone from Mycobacterium ulcerans, siderophores such as vibriobactin from Vibrio cholerae or mycobactin from Mycobacterium tuberculosis, as well as the mycolic acids which form the waxy cell wall of Mycobacteria. The biosyntheses of these natural products are considered attractive targets for drug design.
In this assay, compounds were evaluated by monitoring of fluorescence transfer to whole carrier protein substrates via polyacrylamide gel electrophoresis. See Yasgar, et al. (PMID: 20094656) for further details on assay. This assay was used to evaluate follow-up compounds from the primary screen (AID: 1490).
A DMSO solution of confirmed hits (0.5 microL) was added to a 1.33X enzyme solution (15 microL, containing 26.6 nM Sfp, 66 mM HEPES, 13.3 mM MgCl2, 0.0133% NP-40, 0.133% BSA, pH 7.6). After a 10 minute incubation, the enzymatic reaction was initiated by the addition of 4 X substrate solution (4 microL, containing 50 microM Rhodamine CoA and 50 microM apo-Actinorhodin-ACP). The reactions were terminated after a 30 minute incubation at room temperature by the addition of 2X quench solution (20 microL, containing 4 M Urea, 25 mM EDTA, 0.004% phenol red, pH 8.0). Samples were separated under native conditions on a 20% polyacrylamide gel using standard Laemmli conditions. Following the run, gels were imaged with a Chemi-Doc Plus imager (Bio-Rad, Hercules, CA) and band intensity quantified using the ImageJ software package. Pixel density values were normalized to control wells (SCH202676) and fit with the 4-parameter Hill equation using in-house tools.
[1] Yasgar, et al. (PMID: 20094656) for complete protocol details.
With CC(C)C(C)NC(=O)CSc1nc2scc(-c3ccco3)c2c(=O)n1-c1ccccc1 (stereo not given) the Potency was inconclusive: 167 µM [inhibitor]. O=C(NCc1ccco1)c1csc2c1CCCCC2 was tested, and the outcome was “inactive”. c1ccc(-c2ccc(-c3nc(-c4ccccn4)no3)cc2)cc1 was tested, and the outcome was “inactive”. With Oc1ccc(NCc2cccc(OCc3ccc(F)cc3)c2)cc1 the Potency was inconclusive: 167 µM [inhibitor]. With Nc1cccn2c(-c3ccc(Cl)cc3)cnc12 the Potency was inconclusive: 167 µM [inhibitor]. With CCOC(=O)c1ccc(NC(=S)N2CCN(CCN=CC3=C(O)CC(C)(C)CC3=O)CC2)cc1 the Potency was inconclusive: 167 µM [inhibitor]. In the case of Clc1ccc(C[n+]2csc3ccccc32)cc1, the Potency is reported as active: 2.06 µM. CC1=C(C(=O)O)N2C(=O)[C@@H](NC(=O)[C@@H](N)c3ccc(O)cc3)[C@@H]2SC1 was tested, and the Potency was inconclusive: 224 µM [inhibitor]. For O=C(CC(Nc1ccc(F)cc1)C(=O)O)c1ccccc1 (stereo not given), the outcome was “inactive”. For CC/C(O)=C(/C#N)c1nnc2n1CCCCC2, the outcome was “inactive”. For NNc1nncc2ccccc12, the Potency was active: 74.5 µM. In the case of NC(=O)c1sc2nc(-c3ccco3)ccc2c1N, the outcome is reported as “inactive”. For CCCCN(CCCC)CC(O)c1cc(Cl)cc2c1-c1ccc(Cl)cc1/C2=C/c1ccc(Cl)cc1 (stereo not given), the Potency was inconclusive: 167 µM [inhibitor]. Cc1ccn2c(Nc3ccc4c(c3)OCO4)c(-c3ccccn3)nc2c1 was tested, and the outcome was “inactive”. With N#C/C(=C/c1ccc(N2CCCCCC2)o1)c1cccc(F)c1 the Potency was inconclusive: 167 µM [inhibitor]. With CCC1=C[C@@H]2CN(C1)Cc1c([nH]c3ccccc13)[C@@](C(=O)OC)(c1cc3c(cc1OC)N(C)[C@H]1[C@@](O)(C(=O)OC)[C@H](OC(C)=O)[C@]4(CC)C=CCN5CC[C@]31[C@@H]54)C2 the Potency was active: 55.6 µM. For CCOc1ccccc1NC(=O)c1c(NC(=O)CCC(=O)O)sc2c1CCCCC2, the outcome was “inactive”. With CCOC(=O)c1c(C)n(O)c2ccc(Cl)cc2c1=O the outcome was “inactive”. In the case of CCOc1ccc(OCC)c(NC(=O)CN2CCN(c3cc(C)ccc3C)CC2)c1, the outcome is reported as “inactive”. For Clc1ccccc1CSc1nc2ccncc2[nH]1, the Potency was inconclusive: 167 µM [inhibitor]. In the case of N#C/C(=C/c1ccc(N2CCCCC2)o1)c1cccc(F)c1, the Potency is reported as active: 18.5 µM. With Cc1ccc(NC(=S)N2CCC(c3ccc(C)cc3)C2)cc1 (stereo not given) the Potency was inconclusive: 167 µM [inhibitor]. CN1CCN2c3ccccc3Cc3ccccc3C2C1 (stereo not given) was tested, and the Potency was inconclusive: 167 µM [inhibitor]. With C[C@@](Cc1ccc(O)c(O)c1)(NN)C(=O)O the Potency was active: 6.17 µM. With Nc1cc(-c2ccncc2)c[nH]c1=O the Potency was inconclusive: 167 µM [inhibitor]. In the case of COc1ccc(C(=O)/C=C/C(=O)N(CC(=O)NC2CCCCC2)Cc2cccs2)c(O)c1, the Potency is reported as active: 2.06 µM. For O=C(O)COCc1nc2ccccc2s1, the Potency was inconclusive: 167 µM [inhibitor]. For Cc1cc(Nc2cccc(Cl)c2)nc(NCc2ccccc2)n1, the Potency was inconclusive: 167 µM [inhibitor]. In the case of CC1=NNC(=O)/C1=C\c1cn(-c2ccccc2)nc1-c1ccccc1, the Potency is reported as active: 18.5 µM. In the case of Cc1ccc(-c2cc(C(=O)NCc3ccco3)c3ccccc3n2)s1, the Potency is reported as inconclusive: 167 µM [inhibitor]. Cc1cccc(Nc2nc(NCc3ccco3)c3ccccc3n2)c1 was tested, and the outcome was “inactive”. For CN(C)CCCNC(=O)c1ccc(-c2nc(-c3ccc(Cl)cc3)cs2)cc1, the outcome was “inactive”. O=C(c1ccccc1)N1CCN(C(=S)NCc2ccco2)CC1 was tested, and the Potency was inconclusive: 167 µM [inhibitor]. In the case of COC(=O)c1ccc(-c2noc(CN(C)CCC3CCCCO3)n2)cc1 (stereo not given), the outcome is reported as “inactive”. For CCN1CCN(C(=S)c2ccc(Cl)cc2)CC1, the outcome was “inactive”. In the case of C=CCN1CCc2nc(N)sc2CC1, the Potency is reported as inconclusive: 167 µM [inhibitor]. In the case of CCCC(=O)Nc1ccc(-c2csc(NNC(C)=O)n2)cc1, the Potency is reported as inconclusive: 167 µM [inhibitor]. C=C1C(=O)[C@]23[C@H](O)[C@H]1CC[C@H]2[C@@]12COC3(O)[C@H](O)[C@@H]1C(C)(C)CC[C@@H]2O was tested, and the Potency was inconclusive: 167 µM [inhibitor]. CCN1CCc2nc(N)sc2C1 was tested, and the Potency was inconclusive: 167 µM [inhibitor]. In the case of Cc1ccc(-c2cc(C(=O)O)c3cc(Br)ccc3n2)o1, the outcome is reported as “inactive”.
